Experimental data from patent US20140295417A1, “IDENTIFICATION OF ANTIBIOTIC RESISTANCE” (priority 2011, published 2014).
Where two headings read alike, the source gives them in different places. At least one structure is not confirmed: it was looked up by name or label, or the drawing left a doubt.

Assays:
[1] = tested on: 23S rRNA; conditions: cited from earlier work
[2] = tested on: CA-MRSA, Community acquired MRSA; type: cell-based, Staphylococcus aureus; conditions: resistant relative to non-resistant form
Protocol: Table 3: Antibiotic resistance mechanism in clinically relevant micro-organisms and alteration in the amount of antibiotics in resistant micro-organisms. The alteration of the amount of detectable labelled antibiotics in micro-organisms in its resistant form is determined relative to its non-resistant form. The amount is expressed in % change of fluorescence (decrease and increase, respectively) of an antibiotic which carries a fluorescent label.

CCC[C@@H]1C[C@@H](C(=O)N[C@@H]([C@H]2O[C@H](SC)[C@H](O)[C@@H](O)[C@H]2O)[C@H](C)Cl)N(C)C1 [clindamycin, reference compound]
Phenotype ([1]; 23S position 2058 A to G, Chlamydomonas reinhardtii, Harris 1989): resistance. | Phenotype ([1]; 23S rRNA position 2611, "C to G", Chlamydomonas reinhardtii (Harris et al. 1989)): low level | Phenotype ([1]; 23S rRNA position 2611, "C to U", Chlamydomonas reinhardtii (Harris et al. 1989)): low level | Effect of resistance on fluorescence [2]: binding. Maintaims binding
